The results in this text go back to article doi:10.1101/2023.03.07.531564.

Chains of the proteins cited; added tags and fusions are not shown. Lines headed by an entry give the natural chain unless they say otherwise; changes in a name come on top. A line that says so, or that is headed by a name, gives the form on record, which may keep a tag or linker.
UniProt Q9EPK5: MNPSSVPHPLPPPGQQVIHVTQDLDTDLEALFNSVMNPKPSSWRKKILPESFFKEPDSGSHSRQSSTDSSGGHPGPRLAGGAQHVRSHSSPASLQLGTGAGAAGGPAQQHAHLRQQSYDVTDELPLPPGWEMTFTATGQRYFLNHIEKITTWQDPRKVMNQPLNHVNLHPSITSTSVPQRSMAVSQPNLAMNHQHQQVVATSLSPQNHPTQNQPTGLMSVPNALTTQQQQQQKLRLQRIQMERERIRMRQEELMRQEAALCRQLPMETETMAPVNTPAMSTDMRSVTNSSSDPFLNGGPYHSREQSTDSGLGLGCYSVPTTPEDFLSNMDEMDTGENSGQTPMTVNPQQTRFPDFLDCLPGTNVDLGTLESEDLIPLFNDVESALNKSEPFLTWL
UniProt P46938: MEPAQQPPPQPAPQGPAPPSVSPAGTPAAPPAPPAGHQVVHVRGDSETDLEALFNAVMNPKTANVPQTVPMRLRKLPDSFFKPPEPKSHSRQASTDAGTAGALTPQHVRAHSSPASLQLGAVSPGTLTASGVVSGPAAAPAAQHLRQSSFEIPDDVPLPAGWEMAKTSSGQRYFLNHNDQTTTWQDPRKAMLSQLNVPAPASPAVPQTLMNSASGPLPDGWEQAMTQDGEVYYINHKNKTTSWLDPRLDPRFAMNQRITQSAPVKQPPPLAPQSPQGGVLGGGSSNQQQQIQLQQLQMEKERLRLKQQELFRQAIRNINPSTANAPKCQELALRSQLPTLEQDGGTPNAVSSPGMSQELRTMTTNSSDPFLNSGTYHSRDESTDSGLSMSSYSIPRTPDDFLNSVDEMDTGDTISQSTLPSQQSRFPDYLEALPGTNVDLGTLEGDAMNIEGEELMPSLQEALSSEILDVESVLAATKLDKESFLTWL
UniProt Q9EPL8: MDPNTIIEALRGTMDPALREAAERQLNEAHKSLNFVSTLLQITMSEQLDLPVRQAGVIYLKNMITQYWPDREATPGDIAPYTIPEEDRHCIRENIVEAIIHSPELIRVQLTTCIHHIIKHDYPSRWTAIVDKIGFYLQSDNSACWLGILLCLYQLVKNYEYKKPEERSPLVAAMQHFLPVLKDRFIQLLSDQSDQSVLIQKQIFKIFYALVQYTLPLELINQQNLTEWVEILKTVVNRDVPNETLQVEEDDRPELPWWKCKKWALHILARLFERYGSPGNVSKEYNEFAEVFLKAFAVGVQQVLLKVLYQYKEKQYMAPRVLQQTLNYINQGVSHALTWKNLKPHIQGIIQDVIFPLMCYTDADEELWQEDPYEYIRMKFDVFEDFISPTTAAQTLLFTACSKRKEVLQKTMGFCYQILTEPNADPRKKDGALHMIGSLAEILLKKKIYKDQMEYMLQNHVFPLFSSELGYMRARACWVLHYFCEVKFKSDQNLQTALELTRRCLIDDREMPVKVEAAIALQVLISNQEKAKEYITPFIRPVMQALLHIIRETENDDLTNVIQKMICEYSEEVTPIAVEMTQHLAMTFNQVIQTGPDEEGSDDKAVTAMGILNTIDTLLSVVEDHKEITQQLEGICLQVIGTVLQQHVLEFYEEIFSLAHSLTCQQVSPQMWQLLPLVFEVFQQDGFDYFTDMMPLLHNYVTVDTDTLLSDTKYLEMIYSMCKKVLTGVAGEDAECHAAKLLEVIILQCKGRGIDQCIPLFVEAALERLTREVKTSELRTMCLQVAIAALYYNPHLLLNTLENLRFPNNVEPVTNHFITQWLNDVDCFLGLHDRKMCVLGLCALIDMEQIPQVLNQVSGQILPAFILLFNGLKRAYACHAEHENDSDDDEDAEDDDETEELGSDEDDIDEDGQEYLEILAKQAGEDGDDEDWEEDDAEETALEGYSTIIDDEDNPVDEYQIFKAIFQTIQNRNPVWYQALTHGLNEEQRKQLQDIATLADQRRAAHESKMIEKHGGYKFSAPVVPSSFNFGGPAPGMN
Nup205 (nuclear pore protein NUP205) (B9EJ54, form named): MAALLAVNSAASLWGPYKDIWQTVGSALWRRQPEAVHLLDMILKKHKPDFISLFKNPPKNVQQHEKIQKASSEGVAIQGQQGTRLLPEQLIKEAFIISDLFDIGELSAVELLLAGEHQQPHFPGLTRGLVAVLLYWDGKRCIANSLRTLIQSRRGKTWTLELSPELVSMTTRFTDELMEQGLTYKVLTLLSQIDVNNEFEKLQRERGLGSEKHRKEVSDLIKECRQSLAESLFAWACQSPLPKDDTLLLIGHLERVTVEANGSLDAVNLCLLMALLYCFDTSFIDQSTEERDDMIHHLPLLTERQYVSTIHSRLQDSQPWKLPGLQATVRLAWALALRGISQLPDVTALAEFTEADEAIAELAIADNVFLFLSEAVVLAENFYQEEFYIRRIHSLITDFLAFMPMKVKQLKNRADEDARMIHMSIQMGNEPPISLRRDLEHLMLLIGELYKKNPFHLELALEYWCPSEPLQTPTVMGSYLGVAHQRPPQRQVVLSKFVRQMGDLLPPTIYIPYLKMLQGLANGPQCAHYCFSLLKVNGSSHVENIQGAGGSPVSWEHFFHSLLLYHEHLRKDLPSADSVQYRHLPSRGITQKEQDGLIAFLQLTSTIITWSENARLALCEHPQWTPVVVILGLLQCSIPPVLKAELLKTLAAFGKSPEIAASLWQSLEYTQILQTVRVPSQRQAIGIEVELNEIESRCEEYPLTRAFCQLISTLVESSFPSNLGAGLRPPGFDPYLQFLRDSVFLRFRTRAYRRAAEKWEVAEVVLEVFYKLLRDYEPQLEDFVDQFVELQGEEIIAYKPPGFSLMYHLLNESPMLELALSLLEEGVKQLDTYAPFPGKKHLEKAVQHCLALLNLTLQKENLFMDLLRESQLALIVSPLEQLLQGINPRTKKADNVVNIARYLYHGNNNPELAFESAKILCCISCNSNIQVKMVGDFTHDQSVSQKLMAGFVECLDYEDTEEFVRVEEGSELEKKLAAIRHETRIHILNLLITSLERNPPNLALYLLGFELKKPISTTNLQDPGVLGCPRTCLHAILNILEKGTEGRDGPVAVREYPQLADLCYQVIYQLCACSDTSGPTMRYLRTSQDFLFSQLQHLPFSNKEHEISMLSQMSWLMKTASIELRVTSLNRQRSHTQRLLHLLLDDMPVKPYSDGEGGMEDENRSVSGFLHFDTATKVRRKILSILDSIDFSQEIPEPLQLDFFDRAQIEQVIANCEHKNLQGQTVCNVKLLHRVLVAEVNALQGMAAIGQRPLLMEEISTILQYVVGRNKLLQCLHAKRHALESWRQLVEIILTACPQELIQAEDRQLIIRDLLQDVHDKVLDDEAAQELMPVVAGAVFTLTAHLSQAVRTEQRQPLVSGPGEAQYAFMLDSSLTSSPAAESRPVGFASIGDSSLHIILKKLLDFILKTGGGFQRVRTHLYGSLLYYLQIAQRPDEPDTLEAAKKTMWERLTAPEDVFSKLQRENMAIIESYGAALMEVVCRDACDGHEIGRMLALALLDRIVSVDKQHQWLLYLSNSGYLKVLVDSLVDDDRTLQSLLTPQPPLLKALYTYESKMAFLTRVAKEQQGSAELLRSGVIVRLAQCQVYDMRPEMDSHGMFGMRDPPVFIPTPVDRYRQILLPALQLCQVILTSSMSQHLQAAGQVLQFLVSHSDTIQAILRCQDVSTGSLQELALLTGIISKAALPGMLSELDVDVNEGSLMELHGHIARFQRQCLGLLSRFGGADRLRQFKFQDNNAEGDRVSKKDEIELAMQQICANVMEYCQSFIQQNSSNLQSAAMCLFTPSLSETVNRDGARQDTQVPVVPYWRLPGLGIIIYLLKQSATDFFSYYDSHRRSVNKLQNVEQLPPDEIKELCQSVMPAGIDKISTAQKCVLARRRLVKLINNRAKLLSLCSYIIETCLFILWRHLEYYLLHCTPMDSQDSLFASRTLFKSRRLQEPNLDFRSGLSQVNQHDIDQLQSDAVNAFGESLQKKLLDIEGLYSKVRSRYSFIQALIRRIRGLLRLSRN

Assay [1] addresses 3xFLAG.TAZ (flagged mouse Taz, WW-domain-containing transcription regulator 1) (mouse) (UniProt Q9EPK5). The assay can be described thus: affinity purification with mass spectrometry.
The target in assay [2] is 3xFLAG.YAP (flagged mouse Yap, Yes-associated protein) (mouse) (UniProt P46938). The assay can be described thus: affinity purification with mass spectrometry.

These are yes or no findings as the source states them, for the method shown. In cells and extracts the contact can be indirect. Here binding means that the protein was enriched with, or labelled near, the bait; the list need not be complete.

Take Ipo7 (from UniProt Q9EPL8 1-1038): in assay [1], the binding entry was “binds”.

As to “Nup205 (nuclear pore protein NUP205) (from UniProt B9EJ54 1-2008)”, the binding result in assay [1] and in assay [2] was “binds” throughout.
